Experimental data from patent publication US20240307373A1, “METHODS OF USE AND COMPOSITIONS OF BISBENZYLISOQUINOLINES FOR THE TREATMENT OF MALIGNANCIES” (priority 2023, published 2024).
Several values for one entry are separate records, joined by “and”; a condition that tells them apart may be missing. Identical values can stand only once. For at least one compound, name, drawing or mass did not settle the structure.

Amino acid sequences for entries named in this document (tags omitted). A change or cut given only in a name is not applied to a line headed by its entry.
UniProt Q13555: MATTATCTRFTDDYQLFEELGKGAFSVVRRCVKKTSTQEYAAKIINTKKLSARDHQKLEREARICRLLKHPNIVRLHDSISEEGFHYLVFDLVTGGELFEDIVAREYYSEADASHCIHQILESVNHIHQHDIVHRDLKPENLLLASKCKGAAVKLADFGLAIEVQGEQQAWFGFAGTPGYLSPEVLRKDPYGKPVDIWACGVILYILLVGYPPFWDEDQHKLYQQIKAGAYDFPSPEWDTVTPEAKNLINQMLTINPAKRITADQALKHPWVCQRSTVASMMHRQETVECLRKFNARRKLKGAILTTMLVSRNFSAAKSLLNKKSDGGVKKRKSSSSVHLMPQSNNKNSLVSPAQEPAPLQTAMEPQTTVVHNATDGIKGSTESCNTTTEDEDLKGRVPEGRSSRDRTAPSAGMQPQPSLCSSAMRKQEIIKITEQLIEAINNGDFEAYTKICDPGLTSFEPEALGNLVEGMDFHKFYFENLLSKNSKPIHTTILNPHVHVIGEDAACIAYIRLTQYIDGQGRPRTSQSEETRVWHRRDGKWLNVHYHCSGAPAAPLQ

Target: T1, CAMKII gamma (Homo sapiens, UniProt Q13555)
T1 construct: purchased Promega V3531
Experiment: CAMKII gamma kinase activity (ADP Glo)
Assay type: biochemical
Conditions: 10 uM ATP
Protocol: An enzymatic study was conducted to evaluate the inhibition of CAMKII gamma by ES-3000 (Tetrandrine). CAMKII gamma kinase activity was measured using […] purchased from Promega following the Promega protocol. CAMKII enzyme system purchased from Promega (V3531). ADP Glo was used for detection. Assay optimized for linearity of protein and time. Conditions for inhibitor screening 25 ng CAMKII, 20 min. incubations, inhibitor or DMSO (5%) at RT in 20 uL total volume. Inhibitors, ATP (10 or 50 uM), substrates and buffer added to tubes and reactions started with enzyme. […] Reactions terminated at 20 min. by adding ADP Glo reaction following manufactures instructions. All reactions were done in duplicate. Calculations of percent (%) inhibition determined by dividing the mean activity at each condition by the mean of the DMSO control times 100.

## COc1cc2c3cc1Oc1c(OC)c(OC)cc4c1[C@@H](Cc1ccc(O)c(c1)Oc1ccc(cc1)C[C@@H]3N(C)CC2)N(C)CC4 [berbamine, reference compound]
30 uM inhibitor
  mean (units): 2.7585 units
  units (duplicate reactions): 2.55 units and 2.967 units
100 uM inhibitor
  mean (units): 2.305 units
  units (duplicate reactions): 2.29 units and 2.32 units
250 uM inhibitor
  mean (units): 2.34 units
  units (duplicate reactions): 2.38 units and 2.3 units
